Source: PMC8566502
These are yes or no findings as the source states them, for the method shown. In cells and extracts the contact can be indirect. Some entries that bind do so weakly or less than the wild type.

Protein sequences, listed by entry. Tags and fused reporters are not part of them.
UniProt Q9JJN2: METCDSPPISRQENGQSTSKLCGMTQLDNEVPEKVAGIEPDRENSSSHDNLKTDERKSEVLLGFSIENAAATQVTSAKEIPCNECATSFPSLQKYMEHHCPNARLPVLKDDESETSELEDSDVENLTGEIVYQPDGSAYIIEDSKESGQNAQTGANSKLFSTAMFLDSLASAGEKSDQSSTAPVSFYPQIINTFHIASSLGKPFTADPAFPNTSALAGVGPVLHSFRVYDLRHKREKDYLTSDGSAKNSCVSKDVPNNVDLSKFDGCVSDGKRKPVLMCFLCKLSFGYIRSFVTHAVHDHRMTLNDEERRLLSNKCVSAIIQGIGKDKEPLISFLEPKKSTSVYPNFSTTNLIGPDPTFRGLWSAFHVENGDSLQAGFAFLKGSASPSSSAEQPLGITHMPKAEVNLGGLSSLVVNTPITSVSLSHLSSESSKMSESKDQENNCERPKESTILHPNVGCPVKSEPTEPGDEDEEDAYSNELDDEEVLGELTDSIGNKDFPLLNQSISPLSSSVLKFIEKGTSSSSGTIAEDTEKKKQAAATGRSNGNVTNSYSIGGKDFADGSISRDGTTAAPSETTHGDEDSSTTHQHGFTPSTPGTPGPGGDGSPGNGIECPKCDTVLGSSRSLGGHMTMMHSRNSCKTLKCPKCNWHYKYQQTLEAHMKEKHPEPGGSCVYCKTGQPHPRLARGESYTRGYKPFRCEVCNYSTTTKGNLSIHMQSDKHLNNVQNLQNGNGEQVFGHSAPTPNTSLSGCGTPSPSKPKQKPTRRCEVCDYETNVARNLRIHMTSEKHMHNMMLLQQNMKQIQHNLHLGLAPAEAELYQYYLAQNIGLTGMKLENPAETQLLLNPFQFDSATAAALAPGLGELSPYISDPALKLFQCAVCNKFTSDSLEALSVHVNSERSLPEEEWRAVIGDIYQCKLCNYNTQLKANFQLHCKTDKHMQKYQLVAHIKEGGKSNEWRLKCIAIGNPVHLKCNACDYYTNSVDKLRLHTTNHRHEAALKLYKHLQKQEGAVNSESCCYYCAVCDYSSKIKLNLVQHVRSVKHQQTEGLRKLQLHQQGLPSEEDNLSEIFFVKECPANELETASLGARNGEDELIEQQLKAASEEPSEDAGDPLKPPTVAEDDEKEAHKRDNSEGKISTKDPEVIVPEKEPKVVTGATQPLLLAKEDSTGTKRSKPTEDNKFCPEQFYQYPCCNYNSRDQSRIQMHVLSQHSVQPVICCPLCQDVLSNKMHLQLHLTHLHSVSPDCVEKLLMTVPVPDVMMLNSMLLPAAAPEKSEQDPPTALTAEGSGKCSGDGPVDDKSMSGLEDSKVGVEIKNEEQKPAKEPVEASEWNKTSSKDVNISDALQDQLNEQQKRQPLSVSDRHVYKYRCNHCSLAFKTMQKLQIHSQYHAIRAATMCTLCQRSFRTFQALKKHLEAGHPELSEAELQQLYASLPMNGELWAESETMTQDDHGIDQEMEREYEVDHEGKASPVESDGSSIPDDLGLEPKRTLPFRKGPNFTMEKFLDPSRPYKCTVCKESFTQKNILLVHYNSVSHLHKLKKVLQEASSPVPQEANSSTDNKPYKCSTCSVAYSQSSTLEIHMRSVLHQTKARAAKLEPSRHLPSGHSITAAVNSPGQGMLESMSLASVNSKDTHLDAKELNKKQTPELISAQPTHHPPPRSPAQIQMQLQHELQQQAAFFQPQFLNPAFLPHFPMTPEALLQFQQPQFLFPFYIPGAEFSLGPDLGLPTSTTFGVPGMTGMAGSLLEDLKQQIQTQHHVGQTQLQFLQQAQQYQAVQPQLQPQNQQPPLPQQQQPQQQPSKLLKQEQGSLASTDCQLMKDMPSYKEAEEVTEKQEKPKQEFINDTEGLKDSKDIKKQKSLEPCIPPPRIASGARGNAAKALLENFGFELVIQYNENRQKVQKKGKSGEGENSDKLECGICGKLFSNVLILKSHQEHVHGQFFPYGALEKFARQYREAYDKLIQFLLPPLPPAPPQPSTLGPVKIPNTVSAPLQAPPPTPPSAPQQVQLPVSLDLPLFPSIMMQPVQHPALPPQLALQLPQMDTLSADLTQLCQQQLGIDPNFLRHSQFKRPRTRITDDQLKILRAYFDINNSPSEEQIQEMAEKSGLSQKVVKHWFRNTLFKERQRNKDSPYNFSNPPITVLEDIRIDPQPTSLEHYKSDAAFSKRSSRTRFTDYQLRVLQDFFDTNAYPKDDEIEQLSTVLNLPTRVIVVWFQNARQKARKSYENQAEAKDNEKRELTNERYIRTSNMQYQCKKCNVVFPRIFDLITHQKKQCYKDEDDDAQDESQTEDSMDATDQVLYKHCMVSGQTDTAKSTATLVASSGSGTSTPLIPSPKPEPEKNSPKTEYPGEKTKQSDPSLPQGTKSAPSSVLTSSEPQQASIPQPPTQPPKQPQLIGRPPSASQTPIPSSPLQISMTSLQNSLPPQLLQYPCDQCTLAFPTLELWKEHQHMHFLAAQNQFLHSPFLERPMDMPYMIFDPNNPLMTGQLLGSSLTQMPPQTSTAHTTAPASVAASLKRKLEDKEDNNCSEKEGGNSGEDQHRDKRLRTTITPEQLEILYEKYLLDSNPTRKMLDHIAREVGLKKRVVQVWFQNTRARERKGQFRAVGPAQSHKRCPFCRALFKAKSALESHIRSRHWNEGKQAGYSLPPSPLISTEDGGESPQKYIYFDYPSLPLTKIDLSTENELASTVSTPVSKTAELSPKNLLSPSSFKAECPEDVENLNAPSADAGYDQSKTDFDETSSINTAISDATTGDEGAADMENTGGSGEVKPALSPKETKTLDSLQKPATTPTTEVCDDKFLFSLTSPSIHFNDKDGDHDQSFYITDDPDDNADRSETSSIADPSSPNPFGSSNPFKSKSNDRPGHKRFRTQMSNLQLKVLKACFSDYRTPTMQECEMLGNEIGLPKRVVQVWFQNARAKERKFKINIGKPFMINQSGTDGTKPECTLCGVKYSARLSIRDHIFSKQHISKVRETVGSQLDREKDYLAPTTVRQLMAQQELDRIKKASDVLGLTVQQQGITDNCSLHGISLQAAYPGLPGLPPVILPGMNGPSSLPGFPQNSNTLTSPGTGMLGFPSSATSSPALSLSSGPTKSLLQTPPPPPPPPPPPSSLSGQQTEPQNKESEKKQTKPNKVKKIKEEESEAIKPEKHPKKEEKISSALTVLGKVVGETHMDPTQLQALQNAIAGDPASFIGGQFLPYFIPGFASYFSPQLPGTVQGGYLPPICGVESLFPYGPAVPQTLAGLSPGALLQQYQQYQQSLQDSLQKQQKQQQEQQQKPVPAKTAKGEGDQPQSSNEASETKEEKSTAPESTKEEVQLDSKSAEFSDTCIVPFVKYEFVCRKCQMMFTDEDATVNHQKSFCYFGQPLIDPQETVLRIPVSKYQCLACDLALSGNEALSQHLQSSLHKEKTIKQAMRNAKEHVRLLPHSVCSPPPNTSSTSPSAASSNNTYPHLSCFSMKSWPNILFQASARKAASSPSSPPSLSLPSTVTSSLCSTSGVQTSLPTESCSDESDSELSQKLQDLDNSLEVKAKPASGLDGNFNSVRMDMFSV
UniProt Q8VI67: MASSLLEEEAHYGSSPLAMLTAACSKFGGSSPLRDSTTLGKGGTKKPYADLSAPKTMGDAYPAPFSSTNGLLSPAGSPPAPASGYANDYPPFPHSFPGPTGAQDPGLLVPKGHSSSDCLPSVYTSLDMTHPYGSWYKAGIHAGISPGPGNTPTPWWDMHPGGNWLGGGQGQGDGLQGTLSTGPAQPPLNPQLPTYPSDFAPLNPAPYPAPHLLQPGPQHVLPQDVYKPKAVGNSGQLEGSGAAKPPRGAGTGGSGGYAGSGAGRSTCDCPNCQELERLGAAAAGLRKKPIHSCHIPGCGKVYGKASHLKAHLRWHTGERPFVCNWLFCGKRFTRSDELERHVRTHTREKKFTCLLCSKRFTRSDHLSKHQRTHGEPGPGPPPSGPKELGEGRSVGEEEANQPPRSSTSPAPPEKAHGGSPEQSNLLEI

Biological target: Flag-tagged zinc finger homeobox 4 (Zfhx4) (mouse) (UniProt Q9JJN2)
Experiment: co-IP; lysates of transfected cells (293FT for Flag-Zfhx4 with 6xMyc-Osterix); lysis buffer 20 mM HEPES pH 7.4, 150 mM NaCl, 1% Triton X-100; anti-Flag antibody 16 h at 4 °C, Dynabeads Protein G; five washes with ice-cold PBS; western blot with anti-Myc

6xMyc-Osterix (from UniProt Q8VI67 1-428)
binding: binds
